PubChem BioAssay AID602196, INSERM – 2012

Test: 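Genes whose knock-down alters cisplatin killing of lung cancer cells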
Cell system: human A549 lung cancer cells
Reagents: siRNA pair against human genes
Timing: 48 h transfection before cisplatin; time from cisplatin to read-out not stated
Treatment: cisplatin at a dose killing half of control-siRNA cells; exact dose and duration not given
Read-out: 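Cisplatin cell death as a shift from the 50% death seen with control siRNA; siRNAs toxic or growth-blocking alone scored 0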
Scale: two-siRNA summed score (-2 to +2): higher = both siRNAs protect from cisplatin killing; -2 means both sensitise; mean protection from cisplatin (shift in death) and protection from cisplatin (shift in death), siRNA C and protection from cisplatin (shift in death), siRNA D: higher = protection from cisplatin killing
Rule for the call: 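Each siRNA scores 0 if harmful alone by LDH or WST-1, otherwise +1 if it reduces and -1 if it increases cisplatin killing; a gene is active when both siRNAs agree (sum +2 or -2)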
Meaning of the calls: active = both siRNAs shift cisplatin killing the same way; inactive = no consistent shift, or siRNA harmful alone
The deposit covers about 23,000 reagents; below is a random part of them. 455 of them (2%) were called active. 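Active includes both protection and sensitisation; some change values fall well beyond the stated -50 to +50 range.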 The numbers tell different reagents against one gene apart. No sequences are given here. The record does not give: the amount of reagent.

| two-siRNA summed score (-2 to +2) | mean protection from cisplatin (shift in death) (%) | protection from cisplatin (shift in death), siRNA C (%) | protection from cisplatin (shift in death), siRNA D (%) | call | gene | reagent no. |
| --- | --- | --- | --- | --- | --- | --- |
| 0 | 10.3 | 11.6 | 9.1 | inactive | DHX36 | 1 |
| 0 | 13 | -0.1 | 26.1 | inactive | BAGE4 | 1 |
| 0 | -4.7 | 0.7 | -10 | inactive | IL9 | 1 |
| 0 | 7.8 | 10.6 | 4.9 | inactive | COQ8A | 1 |
| 0 | -3.1 | -18.3 | 12.1 | inactive | LEKR1 | 1 |
| 0 | 5.5 | 9.4 | 1.7 | inactive | MRPL24 | 1 |
| 0 | 7.3 | 7.8 | 6.9 | inactive | PRKRIP1 | 1 |
| 0 | 6.4 | -3.9 | 16.8 | inactive | CD177 | 1 |
| 0 | -3.9 | -13.1 | 5.2 | inactive | G2E3 | 1 |
| 0 | 4.5 | 4 | 4.9 | inactive | LOC387915 | 1 |
| 0 | 5.9 | 7.2 | 4.5 | inactive | AKTIP | 1 |
| 0 | 8.8 | 6.9 | 10.8 | inactive | AKTIP | 2 |
| 0 | 16.5 | 18.6 | 14.5 | inactive | RABAC1 | 1 |
| 0 | 1.8 | 8.2 | -4.6 | inactive | PMFBP1 | 1 |
| 0 | 5.8 | 4.3 | 7.2 | inactive | PNPT1 | 1 |
| 0 | 4 | -7.2 | 15.2 | inactive | TRIM3 | 1 |
| 0 | 6.2 | 1 | 11.5 | inactive | CHTOP | 1 |
| 0 | 9.6 | 5.9 | 13.4 | inactive | MTMR2 | 1 |
| -1 | 1.3 | 11.3 | -8.7 | inactive | CEACAM3 | 1 |
| 0 | 4.9 | 7.6 | 2.2 | inactive | DGKI | 1 |
| 0 | 1.1 | 4.3 | -2.1 | inactive | P2RY13 | 1 |
| 0 | -21.3 | -20.5 | -22 | inactive | ABCB10 | 1 |
| 0 | 0.8 | 0.1 | 1.5 | inactive | MOB4 | 1 |
| 0 | -4.7 | -6 | -3.3 | inactive | GTF2H1 | 1 |

Next part; the last 2 above are carried over.
| two-siRNA summed score (-2 to +2) | mean protection from cisplatin (shift in death) (%) | protection from cisplatin (shift in death), siRNA C (%) | protection from cisplatin (shift in death), siRNA D (%) | call | gene | reagent no. |
| --- | --- | --- | --- | --- | --- | --- |
| 0 | 0.8 | 0.1 | 1.5 | inactive | MOB4 | 1 |
| 0 | -4.7 | -6 | -3.3 | inactive | GTF2H1 | 1 |
| 2 | 9.4 | 9.2 | 9.6 | active | DYRK2 | 1 |
| 0 | 27 | 22.2 | 31.9 | inactive | LOC440470 | 1 |
| -1 | -9.1 | -18.2 | -0.1 | inactive | FABP6 | 1 |
| 0 | 10.8 | 1.6 | 20 | inactive | ABCB1 | 1 |
| 0 | -0.3 | 11.3 | -11.8 | inactive | CDH2 | 1 |
| 0 | -6.2 | 6.9 | -19.3 | inactive | JADE2 | 1 |
| 0 | -12 | 10.7 | -34.7 | inactive | KIF6 | 1 |
| -1 | -5.2 | -14 | 3.5 | inactive | MUC13 | 1 |
| 0 | -1.5 | -10.2 | 7.1 | inactive | DMXL1 | 1 |
| 1 | 14.2 | 11.2 | 17.1 | inactive | RUSC1-AS1 | 1 |
| 0 | -9.3 | -8.9 | -9.8 | inactive | HMGN2 | 1 |
| 1 | 14.9 | 11.1 | 18.6 | inactive | TLK1 | 1 |
| 0 | -10.9 | -28.4 | 6.7 | inactive | MUC5AC | 1 |
| 0 | -0.5 | -10.7 | 9.8 | inactive | MCCC2 | 1 |
| 0 | 5.8 | -0.4 | 12 | inactive | LOC439999 | 1 |
| 0 | 4.3 | 2.8 | 5.8 | inactive | LOC441809 | 1 |
| 0 | 9.3 | 15.2 | 3.5 | inactive | SUGCT | 1 |
| 0 | 7.6 | 2 | 13.1 | inactive | PLCL1 | 1 |
| 0 | 4.6 | 3.4 | 5.8 | inactive | LOC439973 | 1 |
| -1 | -10.1 | -13.4 | -6.7 | inactive | CASP14 | 1 |
| 0 | -23.6 | 6.2 | -53.3 | inactive | MBD2 | 1 |
| 0 | 13.1 | 16.9 | 9.2 | inactive | LOC400942 | 1 |
| 1 | 16.4 | 13.3 | 19.6 | inactive | GPR150 | 1 |
| 0 | -11.4 | -14.5 | -8.2 | inactive | WT1 | 1 |
| 0 | 3.5 | 16.2 | -9.2 | inactive | ACTN4 | 1 |
| 0 | -4.1 | 5.2 | -13.3 | inactive | CHD4 | 1 |
| 1 | 15 | 29.2 | 0.8 | inactive | UBE2W | 1 |
| 0 | -3.5 | -5.1 | -1.9 | inactive | SDK2 | 1 |
| 1 | 12.4 | 9.8 | 15.1 | inactive | LOC440201 | 1 |
| 0 | -3.3 | 0.7 | -7.3 | inactive | PPP2R5D | 1 |
| 1 | 16.1 | 13.3 | 18.9 | inactive | PPP1R14B | 1 |
| 0 | -5.2 | -5 | -5.4 | inactive | ZNF155 | 1 |
| 0 | 2.3 | -4.7 | 9.4 | inactive | GMPR | 1 |
